Reference: doi:10.1101/2020.01.29.925610
No constants are given. Whether binding was seen depends on the method and setting. Binding calls can cover weak binding; strength is not graded here. For part of these data: Where a sequence is shown, tags or fusion partners need not be part of it.

T1: GST-IFT38 (UniProt Q96AJ1)
T1 sequence: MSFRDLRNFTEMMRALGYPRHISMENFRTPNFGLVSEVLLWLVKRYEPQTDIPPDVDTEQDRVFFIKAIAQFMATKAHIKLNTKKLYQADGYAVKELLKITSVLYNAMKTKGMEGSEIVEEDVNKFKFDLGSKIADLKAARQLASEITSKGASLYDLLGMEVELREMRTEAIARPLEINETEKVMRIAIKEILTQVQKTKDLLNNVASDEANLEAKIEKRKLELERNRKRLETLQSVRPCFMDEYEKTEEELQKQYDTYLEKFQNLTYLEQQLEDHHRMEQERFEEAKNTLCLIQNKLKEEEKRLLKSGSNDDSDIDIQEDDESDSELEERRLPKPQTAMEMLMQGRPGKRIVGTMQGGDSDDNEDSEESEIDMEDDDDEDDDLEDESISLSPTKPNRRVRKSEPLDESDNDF

T2: GST-IFT38^Ctail (aa 329-413) (UniProt Q96AJ1)
T2 sequence: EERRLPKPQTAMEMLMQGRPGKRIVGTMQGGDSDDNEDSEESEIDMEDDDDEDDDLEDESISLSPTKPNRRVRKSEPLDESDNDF


Legend:
GST-IFT38 = target: T1, GST-IFT38; test: pull-down
[1] = target: T2, GST-IFT38^Ctail (aa 329-413); test: pull-down
[2] = target: BBS1 (subunit of the bovine BBSome) (bovine); test: cryo-EM structure
BBSome (bovine) = test: cryo-EM structure
[3] = target: BBS7 (subunit of the bovine BBSome) (bovine); test: cryo-EM structure

binding (GST-IFT38) | binding [1] | binding [2] | binding (BBSome (bovine)) | binding [3] | Molecule
binds | binds |  |  |  | BBSome (bovine) (complex)
 |  | binds |  |  | BBS4 (subunit of the bovine BBSome) (protein, UniProt Q1JQ97 1-519) MAEEKLSARTQLPVSAESQKPVLKKAPEFPILEKQNWLIHLYYIQKDYEACKAVIKEQLQETHGLCEYAIYVQALIFRLEGNIQESLRLFQMCAFLSPQCADNLKQVARSLFLLGKHKAAIEVYNEAAKLNQKDWEICHNLGVCYIYLKQFDKAQDQLHNALHLNRHDLTYIMLGKIFLLKGDLDKAIEIYKKAVEFSPENTELLTTLGLLYLQLGIYQKAFEHLGNTLTYDPTNYKAILAAGSMMQTHGDFDVALTKYKVVACAVIESPPLWNNIGMCFFGKKKYVAAISCLKRANYLAPLDWKILYNLGLVHLTMQQYASAFHFLSAAINFQPKMGELYMLLAVALTNLEDSENAKRAYEEAVRLDKCNPLVNLNYAVLLYNQGEKRDALAQYQEMEKKVNLLKYSSSLEFDPEMVEVAQKLGAALQVGEALVWTKPVKDPKSKHQTASTSKAAGFQQPLGSNQALGQAMSSAATCRKLSSGAGGTSQLTKPPSLPLEPEPTVEAQPTEASAQTREK
 |  | binds | binds | binds | ARL6^GTP (full-length ARL6 incubated with GTP) (enzyme, UniProt Q0IIM2 1-186) MGLLDRLSGLLGLKKKEVHVLCLGLDNSGKTTIINKLKPSNAQSQDIVPTIGFSIQKFKSSSLSFTVFDMSGQGRYRNLWEHYYKEGQAIIFVIDSSDKLRMVVAKEELRTLLNHPDIKHRRIPILFFANKMDLRDALTSVKVSQLLCLEDIKDKPWHICASDAIKGEGLQEGVDWLQDQIQSVKT
